The experiment has as its target T1, …1 (Arabidopsis (endogenous in leaves)) (UniProt P32961).
T1 sequence: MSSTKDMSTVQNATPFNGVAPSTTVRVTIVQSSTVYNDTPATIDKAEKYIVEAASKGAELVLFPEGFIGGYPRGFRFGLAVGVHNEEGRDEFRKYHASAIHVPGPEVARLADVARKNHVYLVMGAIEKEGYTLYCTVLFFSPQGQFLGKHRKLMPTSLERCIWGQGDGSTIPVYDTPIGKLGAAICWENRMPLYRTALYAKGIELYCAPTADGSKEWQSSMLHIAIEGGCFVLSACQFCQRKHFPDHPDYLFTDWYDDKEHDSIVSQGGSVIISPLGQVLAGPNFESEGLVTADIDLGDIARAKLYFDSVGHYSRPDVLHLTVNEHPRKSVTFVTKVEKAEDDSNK
The experiment in a line: SEC; protein correlation profiling: cholate-solubilized Arabidopsis leaf microsomal proteins on Superdex 200 10/300 GL or Superose 6 10 x 300 GL at 6 °C; 50 mM HEPES-KOH pH 7.8, 100 mM NaCl, 10 mM MgCl2, 5% glycerol, 0.1% sodium cholate; fractions quantified by label-free LC-MS/MS; two biological replicates. In general terms: SEC sorts molecules by how far they enter the pores of the column.

The text below walks through data of article PMC5672003.

Results are given in words; binding and its absence hold for the method and conditions named. Binding can be weak; no strength is given.

Regarding “THIOREDEXOIN M-TYPE1 (Arabidopsis (endogenous in leaves))”, the binding result is reported as “binds”.
